# Earlier results in paper PMC6359144 (International Journal of Molecular Sciences, 2019).
# Read-outs that look alike come from different tables or passages of the source.
# How the values were obtained:
# [1] = tested on: MCF-7^Topo breast adenocarcinoma cells; parameters: method as in earlier work; conditions: read-out: IC50 MCF-7^Topo (72 h), MTT, and 34; cited from earlier work
# [2] = tested on: KB-V1^Vbl cervix carcinoma cells; conditions: read-out: IC50 KB-V1^Vbl (72 h), MTT, and 34; cited from earlier work
# [3] = tested on: Ea.Hy926 endothelial hybrid cells; parameters: method as in earlier work; conditions: read-out: IC50 Ea.Hy926 (72 h), MTT, and 34; cited from earlier work
# 518A2 melanoma cells = tested on: 518A2 melanoma cells; parameters: method as in earlier work; conditions: MTT, and 34, cited from earlier work
# [4] = tested on: HT-29 colon carcinoma cells; parameters: method as in earlier work; conditions: MTT, and 34, cited from earlier work
# [5] = tested on: HCT-116 colon carcinoma cells; parameters: method as in earlier work; conditions: read-out: IC50 HCT-116 (72 h), MTT, and 34; cited from earlier work
smiles,measurement,setting,value
"O=C(CCCCCCC(=O)Nc1ccccc1)NO [SAHA, Suberoyl anilide hydroxamic acid]",IC50,[1],13500 ± 700 nM
same,IC50,[2],13100 ± 800 nM
same,IC50,[3],1900 ± 200 nM
same,IC50,"518A2 melanoma cells; 24 h, read-out: IC50 518A2 (24 h)",18700 ± 100 nM
same,IC50,"518A2 melanoma cells; read-out: IC50 518A2 (72 h), 72 h",1800 ± 100 nM
same,IC50,"[4]; 24 h, read-out: IC50 HT-29 (24 h)",1900 ± 300 nM
same,IC50,"[4]; read-out: IC50 HT-29 (72 h), 72 h",1800 ± 100 nM
same,IC50,[5],900 ± 100 nM
